Source: article PMC5642512
No constants are given. Whether binding was seen depends on the method and setting. In cells and extracts the contact can be indirect. Some results given as binding are weak or reduced against the parent protein; the word gives no strength.

Sequences of proteins named here, by UniProt entry; tags and fusion partners are left off. A change or cut given only in a name is not applied to a line headed by its entry.
UniProt P22736: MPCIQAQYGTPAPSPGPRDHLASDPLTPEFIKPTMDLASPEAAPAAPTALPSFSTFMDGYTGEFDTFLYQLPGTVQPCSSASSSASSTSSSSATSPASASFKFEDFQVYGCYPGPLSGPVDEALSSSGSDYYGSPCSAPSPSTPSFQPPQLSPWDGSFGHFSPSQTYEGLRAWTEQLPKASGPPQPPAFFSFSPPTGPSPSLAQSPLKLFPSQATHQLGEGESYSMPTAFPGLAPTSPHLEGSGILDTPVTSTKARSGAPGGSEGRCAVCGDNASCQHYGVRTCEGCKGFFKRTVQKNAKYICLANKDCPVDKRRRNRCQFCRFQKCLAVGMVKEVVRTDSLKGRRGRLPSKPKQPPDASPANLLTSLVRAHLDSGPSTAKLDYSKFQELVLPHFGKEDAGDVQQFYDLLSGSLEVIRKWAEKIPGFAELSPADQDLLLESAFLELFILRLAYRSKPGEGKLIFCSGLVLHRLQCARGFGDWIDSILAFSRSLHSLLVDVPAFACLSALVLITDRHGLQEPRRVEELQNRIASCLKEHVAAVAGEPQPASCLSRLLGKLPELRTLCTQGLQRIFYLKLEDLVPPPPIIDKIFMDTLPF
UniProt P10415: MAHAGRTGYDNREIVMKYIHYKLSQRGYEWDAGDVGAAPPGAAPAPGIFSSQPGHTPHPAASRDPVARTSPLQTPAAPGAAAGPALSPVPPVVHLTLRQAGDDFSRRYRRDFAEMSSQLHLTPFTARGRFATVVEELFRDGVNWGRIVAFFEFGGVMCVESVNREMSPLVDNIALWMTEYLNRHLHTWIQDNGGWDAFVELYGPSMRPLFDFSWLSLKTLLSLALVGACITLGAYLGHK

Key:
[1] = target: Flag-tagged Nur77 (UniProt P22736); experiment: co-IP; Flag-Nur77 transfected alone or with Flag-Bcl-2, Flag-Bcl-2/S87A or Flag-Bcl-2/T56A into Bcl-2-depleted HeLa cells; with or without CCE9; lysates immunoprecipitated with anti-Flag antibody, blotted with anti-Myc and anti-Flag (as the legend prints)
[2] = target: Flag-tagged Nur77 (UniProt P22736); experiment: co-IP; Myc-Bcl-2 or Myc-Bcl-2/S87A and Flag-Nur77 co-transfected into HeLa229 or A549 cells; with or without CCE9 and SB203580; lysates immunoprecipitated with anti-Flag antibody, blotted with anti-Myc and anti-Flag

| Substance | binding [1] | binding [2] |
| --- | --- | --- |
| Flag-Bcl-2 (from UniProt P10415 1-239) | binds |  |
| Myc-tagged Bcl-2 (from UniProt P10415 1-239) |  | binds |
| Myc-Bcl-2/S87A (from UniProt P10415 1-239) |  | no binding |
